Results reported in article PMC5805366.

Columns and labels:
[1] = target: T1, endogenous human Nmi (human (endogenous in U251 and human foreskin fibroblasts)) (UniProt Q13287); assay: co-IP; cells containing pCMV-FLAG-UL23, as for U251-UL23 cells
T1 sequence: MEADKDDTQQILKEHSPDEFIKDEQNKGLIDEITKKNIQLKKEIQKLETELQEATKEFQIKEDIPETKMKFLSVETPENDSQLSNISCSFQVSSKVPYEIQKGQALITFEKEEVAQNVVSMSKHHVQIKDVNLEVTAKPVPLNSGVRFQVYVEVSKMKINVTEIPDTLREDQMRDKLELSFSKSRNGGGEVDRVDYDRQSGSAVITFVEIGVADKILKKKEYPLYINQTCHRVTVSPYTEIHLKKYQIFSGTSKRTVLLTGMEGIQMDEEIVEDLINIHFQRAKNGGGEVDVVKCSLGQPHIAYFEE

[2] = target: T2, FLAG-tagged human Nmi, full length (pCMV-FLAG-Nmi) (human) (UniProt Q13287); assay: co-IP; HA-tagged UL23 and FLAG-tagged Nmi in HCMV-infected U251 cells
T2 sequence: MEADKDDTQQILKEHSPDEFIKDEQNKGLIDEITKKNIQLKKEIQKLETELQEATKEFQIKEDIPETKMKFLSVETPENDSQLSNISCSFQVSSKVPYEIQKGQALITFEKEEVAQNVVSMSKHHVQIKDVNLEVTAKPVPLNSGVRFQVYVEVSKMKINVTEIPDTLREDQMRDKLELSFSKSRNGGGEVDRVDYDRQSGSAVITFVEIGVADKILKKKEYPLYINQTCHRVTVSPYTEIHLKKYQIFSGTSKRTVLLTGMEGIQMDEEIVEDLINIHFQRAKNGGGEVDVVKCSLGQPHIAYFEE

[3] = target: T2, FLAG-tagged human Nmi, full length (pCMV-FLAG-Nmi) (human); assay: co-IP; U251 cells co-transfected with plasmids for HA- and FLAG-tagged proteins, harvested at 48 h; IP with anti-HA or anti-FLAG, blots with anti-HA and anti-FLAG
[4] = target: T3, FLAG-tagged UL70 protein of HCMV (human cytomegalovirus (HCMV)) (UniProt P17149); assay: as above
T3 sequence: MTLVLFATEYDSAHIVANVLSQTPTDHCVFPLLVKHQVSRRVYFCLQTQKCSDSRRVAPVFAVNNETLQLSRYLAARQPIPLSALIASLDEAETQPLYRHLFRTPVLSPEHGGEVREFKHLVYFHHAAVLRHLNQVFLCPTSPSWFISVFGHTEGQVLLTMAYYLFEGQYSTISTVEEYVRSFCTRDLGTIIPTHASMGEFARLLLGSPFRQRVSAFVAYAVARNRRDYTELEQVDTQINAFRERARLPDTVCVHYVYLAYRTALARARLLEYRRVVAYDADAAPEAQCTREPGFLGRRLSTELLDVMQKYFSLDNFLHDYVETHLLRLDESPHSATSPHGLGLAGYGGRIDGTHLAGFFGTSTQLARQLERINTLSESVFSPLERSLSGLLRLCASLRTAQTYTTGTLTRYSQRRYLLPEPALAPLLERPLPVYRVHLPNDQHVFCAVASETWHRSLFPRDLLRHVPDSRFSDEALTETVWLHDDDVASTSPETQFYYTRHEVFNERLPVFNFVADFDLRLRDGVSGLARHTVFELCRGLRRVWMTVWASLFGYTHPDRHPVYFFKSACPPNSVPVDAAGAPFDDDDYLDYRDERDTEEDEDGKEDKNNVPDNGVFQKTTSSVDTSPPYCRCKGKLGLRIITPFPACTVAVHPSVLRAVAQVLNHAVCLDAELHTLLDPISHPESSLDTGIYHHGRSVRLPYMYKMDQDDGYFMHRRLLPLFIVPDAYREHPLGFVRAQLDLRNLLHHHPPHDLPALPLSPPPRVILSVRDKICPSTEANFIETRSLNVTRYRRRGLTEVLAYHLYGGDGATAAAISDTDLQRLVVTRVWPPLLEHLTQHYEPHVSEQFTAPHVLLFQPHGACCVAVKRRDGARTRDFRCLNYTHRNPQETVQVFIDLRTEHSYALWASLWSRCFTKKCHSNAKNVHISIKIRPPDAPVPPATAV

[5] = target: T2, FLAG-tagged human Nmi, full length (pCMV-FLAG-Nmi) (human); assay: co-IP; HA-tagged UL23 and FLAG-tagged Nmi in HeLa cells
[6] = target: T1, endogenous human Nmi (human (endogenous in U251 and human foreskin fibroblasts)); assay: co-IP; IFN-γ-treated U251 cells infected with TowneBAC or the rescued viruses R-ΔUL23 and R-stop (MOI = 1) at 12 h post-treatment, lysates at 24-48 h postinfection; IP with anti-UL23, anti-Nmi or anti-STAT1
[7] = target: T1, endogenous human Nmi (human (endogenous in U251 and human foreskin fibroblasts)); assay: co-IP; IFN-γ-treated human foreskin fibroblasts infected with TowneBAC or the rescued viruses
[8] = target: T1, endogenous human Nmi (human (endogenous in U251 and human foreskin fibroblasts)); assay: co-IP; U251 cells infected with HCMV (MOI = 1), lysates at 48-72 h postinfection; IP with anti-UL23, anti-UL44 or anti-Nmi, blots for UL23, UL44 and Nmi
[9] = target: HCMV UL23(129-284aa) fused with the GAL4 DNA-binding domain (pGBKT7-UL23(129-284aa)) (human cytomegalovirus (HCMV)); assay: two-hybrid; binary test: yeast AH109 co-transformed with one BD and one AD plasmid; growth on SD-minus Trp/Leu/Ade/His and beta-gal filter lift
[10] = target: HCMV UL23(1-178aa) fused with the GAL4 DNA-binding domain (pGBKT7-UL23(1-178aa)) (human cytomegalovirus (HCMV)); assay: as above
[11] = target: FLAG-tagged HCMV UL23(1-178aa) (pCMV-FLAG-UL23(1-178aa)) (human cytomegalovirus (HCMV)); assay: co-IP; FLAG-tagged truncation constructs of Nmi or UL23 transfected into U251 cells
[12] = target: FLAG-tagged HCMV UL23(129-284aa) (pCMV-FLAG-UL23(129-284aa)) (human cytomegalovirus (HCMV)); assay: as above

In the case of “FLAG-tagged HCMV UL23, full length (pCMV-FLAG-UL23) (human cytomegalovirus (HCMV))”, the binding [1] is reported as “binds”.

With “HA-tagged HCMV UL23, full length (pCMV-HA-UL23) (human cytomegalovirus (HCMV))” the binding [2] was “binds”, the binding [3] was “binds” and the binding [4] was “no binding”. The binding [5] was “binds”.

For “native (untagged) UL23 expressed during HCMV infection (human cytomegalovirus (HCMV), TowneBAC)”, the binding [6] was “binds”, the binding [7] was “binds” and the binding [8] was “binds”.

B1: human Nmi, full length, fused with the GAL4 activation domain (pACT2-Nmi library clone; pGADT7-Nmi) (protein, UniProt Q13287 1-307)
chain: MEADKDDTQQILKEHSPDEFIKDEQNKGLIDEITKKNIQLKKEIQKLETELQEATKEFQIKEDIPETKMKFLSVETPENDSQLSNISCSFQVSSKVPYEIQKGQALITFEKEEVAQNVVSMSKHHVQIKDVNLEVTAKPVPLNSGVRFQVYVEVSKMKINVTEIPDTLREDQMRDKLELSFSKSRNGGGEVDRVDYDRQSGSAVITFVEIGVADKILKKKEYPLYINQTCHRVTVSPYTEIHLKKYQIFSGTSKRTVLLTGMEGIQMDEEIVEDLINIHFQRAKNGGGEVDVVKCSLGQPHIAYFEE
In the case of B1, the binding [9] is reported as “binds” and the binding [10] is reported as “no binding”.

B2: Nmi as partner in the co-IP with truncated FLAG-tagged UL23 (protein, UniProt Q13287 1-307)
chain: MEADKDDTQQILKEHSPDEFIKDEQNKGLIDEITKKNIQLKKEIQKLETELQEATKEFQIKEDIPETKMKFLSVETPENDSQLSNISCSFQVSSKVPYEIQKGQALITFEKEEVAQNVVSMSKHHVQIKDVNLEVTAKPVPLNSGVRFQVYVEVSKMKINVTEIPDTLREDQMRDKLELSFSKSRNGGGEVDRVDYDRQSGSAVITFVEIGVADKILKKKEYPLYINQTCHRVTVSPYTEIHLKKYQIFSGTSKRTVLLTGMEGIQMDEEIVEDLINIHFQRAKNGGGEVDVVKCSLGQPHIAYFEE
B2 was tested, and the binding [11] was “no binding” and the binding [12] was “binds”.

These are yes or no findings as the source states them, for the method shown. For part of these data: Binding can be weak; no strength is given. For part of these data: Where a sequence is shown, tags or fusion partners need not be part of it. For part of these data: Binding seen in cells or lysates may run through a third protein.
